Laboratory results as given in US20220233688A1, “ADJUVANTS FOR IMMUNOGENIC COMPOSITIONS AND METHODS OF USE THEREOF” (UNIVERSITY OF MARYLAND, BALTIMORE, priority 2019, published 2022).
Some entries share one result that the patent states for a list of compounds.

Test system: A/Singapore/GP1908/2015 (H1N1)(Sing/2015) virus
Parameters: species or system BALB/c mice
Conditions: mouse, in vivo

With “phosphorylated hexa-acyl disaccharide [PHAD]” the “weight loss from starting weight” value was “at least 20%”.
